Measured values from article PMC10897203.
No constants are given. Whether binding was seen depends on the method and setting. For some of these results: In cells and extracts the contact can be indirect. Some entries that bind do so weakly or less than the wild type. For some of these results: Tags and fused reporters may be left off the sequences shown.

Chains of the proteins cited; added tags and fusions are not shown.
UniProt P61765: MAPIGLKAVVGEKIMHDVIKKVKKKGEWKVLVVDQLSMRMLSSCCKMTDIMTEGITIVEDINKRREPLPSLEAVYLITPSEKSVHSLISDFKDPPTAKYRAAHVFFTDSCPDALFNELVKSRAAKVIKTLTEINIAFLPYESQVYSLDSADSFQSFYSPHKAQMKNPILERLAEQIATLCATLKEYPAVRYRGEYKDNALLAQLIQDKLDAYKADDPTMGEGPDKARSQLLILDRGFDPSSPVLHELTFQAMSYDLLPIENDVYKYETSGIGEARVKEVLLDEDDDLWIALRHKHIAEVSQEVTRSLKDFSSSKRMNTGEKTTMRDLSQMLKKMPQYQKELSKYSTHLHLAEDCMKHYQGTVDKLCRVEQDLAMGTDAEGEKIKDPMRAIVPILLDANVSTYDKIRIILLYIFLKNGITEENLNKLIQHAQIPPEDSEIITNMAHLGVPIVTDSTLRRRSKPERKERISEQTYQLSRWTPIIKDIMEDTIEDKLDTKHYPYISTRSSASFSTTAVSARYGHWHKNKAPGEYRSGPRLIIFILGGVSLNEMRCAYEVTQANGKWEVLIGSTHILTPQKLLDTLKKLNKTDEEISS

Key:
[1] = biological target: STXBP1-emGFP (pCMV-STXBP1-emGFP) (UniProt P61765); assay: co-IP; GFP-trap (anti-GFP magnetic beads, 1 h at 4 °C) on lysates of transfected PC12 or STXBP1/2 DKO PC12 cells, non-stimulated or stimulated (high K+ in the text, 2 mM BaCl2 in legend and methods); western blot
[2] = biological target: GFP-tagged STXBP1^WT (ALPHAScreen) (UniProt P61765); assay: AlphaScreen or HTRF; protein pair co-expressed in Leishmania tarentolae extract (one with C-terminal GFP, the other with C-terminal Cherry-cMyc), diluted in 25 mM HEPES, 50 mM NaCl; biotin-coupled GFP-nanotrap on streptavidin donor beads, anti-cMyc acceptor beads; room temperature

B1: DDHD2, endogenous in PC12 cells (enzyme, UniProt D3ZJ91 1-699)
chain: MSSGESYQEQLSQSDPSPSPNSSSSFELLDMDVGSSYEPVSPHWFYCKVIDSKELWIPFNSEDSQQLEEAHGSGKDCNERVVPTDGGRYDVHLGERMRYAVYWDELPSEVRRCTWFYKGDKDNKYVPYSESFSQVLEDTYMLAVTLDEWKKKLESPNREIIVLHNPKLMVHYQPITGSDEWGSTSTEQGRPRSVKRGVESIPVDIHCGEPLQIDHLVFVVHGIGPACDLRFRSIVQCVNDFRSVSLNLLQTHFKKAQENQQIGRVEFLPVNWHSPLHSTGVDIDLQRITLPSINRLRHFTNDTILDVFFYNSPTYCQTIVDTVASEMNRIYTLFLQRNPDFKGGVSIAGHSLGSLILFDILTNQKDSIGDIDSEKGSLSTAEDLGDVSTLEEELKKLQLSEFVTVFEKEKVDREALALCTDRDLQEMGIPLGPRKKILNHFSATKSSVGINRPTMSASEVNIPKEKGDYLDVGIGQVSVKYPRLNYKPEIFFAFGSPIGMFLTVRGLRRIDPNYKFPTCKGFFNIYHPFDPVAYRIEPMVVPGVEFEPMLIPHHKGRKRMHLELREGLTRMSMDLKNNLLGSLRMAWKSFTRAPYPALQASEMAEDTEAESEPSSEKPSDANTEEPPVEVKEEAPINVGMLNGGQRIDYVLQEKPIESFNEYLFALQSHLCYWESEDTVLLVLKEIYQTQGIFLDQPLQ
Question: For B1, which binding [1] is on record?
Answer: binds

B2: myc-tagged DDHD2 (ALPHAScreen) (enzyme, UniProt O94830 1-711)
chain: MSSVQSQQEQLSQSDPSPSPNSCSSFELIDMDAGSLYEPVSPHWFYCKIIDSKETWIPFNSEDSQQLEEAYSSGKGCNGRVVPTDGGRYDVHLGERMRYAVYWDELASEVRRCTWFYKGDKDNKYVPYSESFSQVLEETYMLAVTLDEWKKKLESPNREIIILHNPKLMVHYQPVAGSDDWGSTPTEQGRPRTVKRGVENISVDIHCGEPLQIDHLVFVVHGIGPACDLRFRSIVQCVNDFRSVSLNLLQTHFKKAQENQQIGRVEFLPVNWHSPLHSTGVDVDLQRITLPSINRLRHFTNDTILDVFFYNSPTYCQTIVDTVASEMNRIYTLFLQRNPDFKGGVSIAGHSLGSLILFDILTNQKDSLGDIDSEKDSLNIVMDQGDTPTLEEDLKKLQLSEFFDIFEKEKVDKEALALCTDRDLQEIGIPLGPRKKILNYFSTRKNSMGIKRPAPQPASGANIPKESEFCSSSNTRNGDYLDVGIGQVSVKYPRLIYKPEIFFAFGSPIGMFLTVRGLKRIDPNYRFPTCKGFFNIYHPFDPVAYRIEPMVVPGVEFEPMLIPHHKGRKRMHLELREGLTRMSMDLKNNLLGSLRMAWKSFTRAPYPALQASETPEETEAEPESTSEKPSDVNTEETSVAVKEEVLPINVGMLNGGQRIDYVLQEKPIESFNEYLFALQSHLCYWESEDTVLLVLKEIYQTQGIFLDQPLQ
Question: How did the binding [2] turn out when B2 was run?
Answer: binds

B3: myc-tagged PAPLA1 (ALPHAScreen) (enzyme, UniProt Q8NEL9 1-900)
chain: MNYPGRGSPRSPEHNGRGGGGGAWELGSDARPAFGGGVCCFEHLPGGDPDDGDVPLALLRGEPGLHLAPGTDDHNHHLALDPCLSDENYDFSSAESGSSLRYYSEGESGGGGSSLSLHPPQQPPLVPTNSGGGGATGGSPGERKRTRLGGPAARHRYEVVTELGPEEVRWFYKEDKKTWKPFIGYDSLRIELAFRTLLQTTGARPQGGDRDGDHVCSPTGPASSSGEDDDEDRACGFCQSTTGHEPEMVELVNIEPVCVRGGLYEVDVTQGECYPVYWNQADKIPVMRGQWFIDGTWQPLEEEESNLIEQEHLNCFRGQQMQENFDIEVSKSIDGKDAVHSFKLSRNHVDWHSVDEVYLYSDATTSKIARTVTQKLGFSKASSSGTRLHRGYVEEATLEDKPSQTTHIVFVVHGIGQKMDQGRIIKNTAMMREAARKIEERHFSNHATHVEFLPVEWRSKLTLDGDTVDSITPDKVRGLRDMLNSSAMDIMYYTSPLYRDELVKGLQQELNRLYSLFCSRNPDFEEKGGKVSIVSHSLGCVITYDIMTGWNPVRLYEQLLQKEEELPDERWMSYEERHLLDELYITKRRLKEIEERLHGLKASSMTQTPALKFKVENFFCMGSPLAVFLALRGIRPGNTGSQDHILPREICNRLLNIFHPTDPVAYRLEPLILKHYSNISPVQIHWYNTSNPLPYEHMKPSFLNPAKEPTSVSENEGISTIPSPVTSPVLSRRHYGESITNIGKASILGAASIGKGLGGMLFSRFGRSSTTQSSETSKDSMEDEKKPVASPSATTVGTQTLPHSSSGFLDSAYFRLQESFFNLPQLLFPENVMQNKDNALVELDHRIDFELREGLVESRYWSAVTSHTAYWSSLDVALFLLTFMYKHEHDDDAKPNLDPI
Question: How did the binding [2] turn out when B3 was run?
Answer: binds

B4: myc-tagged PNPLA1 (ALPHAScreen) (enzyme, UniProt Q8N8W4 1-532)
chain: MEEQVFKGDPDTPHSISFSGSGFLSFYQAGAVDALRDLAPRMLETAHRFAGTSAGAVIAALAICGIEMDEYLRVLNVGVAEVKKSFLGPLSPSCKMVQMMRQFLYRVLPEDSYKVTTGKLHVSLTRLTDGENVVVSEFTSKEELIEALYCSCFVPVYCGLIPPTYRGVRYIDGGFTGMQPCAFWTDAITISTFSGQQDICPRDCPAIFHDFRMFNCSFQFSLENIARMTHALFPPDLVILHDYYYRGYEDAVLYLRRLNAVYLNSSSKRVIFPRVEVYCQIELALGNECPERSQPSLRARQASLEGATQPHKEWVPKGDGRGSHGPPVSQPVQTLEFTCESPVSAPVSPLEQPPAQPLASSTPLSLSGMPPVSFPAVHKPPSSTPGSSLPTPPPGLSPLSPQQQVQPSGSPARSLHSQAPTSPRPSLGPSTVGAPQTLPRSSLSAFPAQPPVEELGQEQPQAVALLVSSKPKSAVPLVHVKETVSKPYVTESPAEDSNWVNKVFKKNKQKTSGTRKGFPRHSGSKKPSSKVQ
Question: For B4, which binding [2] is on record?
Answer: binds
